This test concerns the target endogenous H2A.Z.1 tagged with 3xFlag-2xStrep (U2OS) (human (endogenous in U2OS)) (UniProt P0C0S5). In words: co-IP; soluble nuclear extracts of U2OS cells expressing tagged H2A.Z.1, tagged H2A.Z.2 or no tag; anti-Flag resin followed by Flag peptide elution; amount of cells adapted to similar amounts of precipitated H2A.Z isoform; western blot of the Flag-eluted proteins. A general note: Immunoblotting shows a protein as a band on a membrane.

Protein sequences, listed by entry. Tags and fused reporters are not part of them. Lines headed by an entry give the natural chain unless they say otherwise; changes in a name come on top.
UniProt P0C0S5: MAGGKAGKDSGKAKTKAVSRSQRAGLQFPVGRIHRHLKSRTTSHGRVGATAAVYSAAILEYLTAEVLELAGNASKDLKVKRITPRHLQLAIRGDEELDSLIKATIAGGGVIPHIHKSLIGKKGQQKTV

Results are given in words; binding and its absence hold for the method and conditions named. Binding seen in cells or lysates may run through a third protein. Some binding calls cover weakened binding; strength is not graded here.

B1: PHF14 (endogenous, U2OS) (protein, UniProt O94880 1-948)
chain: MDRSSKRRQVKPLAASLLEALDYDSSDDSDFKVGDASDSEGSGNGSEDASKDSGEGSCSDSEENILEEELNEDIKVKEEQLKNSAEEEVLSSEKQLIKMEKKEEEENGERPRKKKEKEKEKEKEKEKEKEREKEKEKATVSENVAASAAATTPATSPPAVNTSPSVPTTTTATEEQVSEPKKWNLRRNRPLLDFVSMEELNDMDDYDSEDDNDWRPTVVKRKGRSASQKEGSDGDNEDDEDEGSGSDEDENDEGNDEDHSSPASEGGCKKKKSKVLSRNSADDEELTNDSLTLSQSKSNEDSLILEKSQNWSSQKMDHILICCVCLGDNSEDADEIIQCDNCGITVHEGCYGVDGESDSIMSSASENSTEPWFCDACKCGVSPSCELCPNQDGIFKETDAGRWVHIVCALYVPGVAFGDIDKLRPVTLTEMNYSKYGAKECSFCEDPRFARTGVCISCDAGMCRAYFHVTCAQKEGLLSEAAAEEDIADPFFAYCKQHADRLDRKWKRKNYLALQSYCKMSLQEREKQLSPEAQARINARLQQYRAKAELARSTRPQAWVPREKLPRPLTSSASAIRKLMRKAELMGISTDIFPVDNSDTSSSVDGRRKHKQPALTADFVNYYFERNMRMIQIQENMAEQKNIKDKLENEQEKLHVEYNKLCESLEELQNLNGKLRSEGQGIWALLGRITGQKLNIPAILRAPKERKPSKKEGGTQKTSTLPAVLYSCGICKKNHDQHLLLLCDTCKLHYHLGCLDPPLTRMPRKTKNSYWQCSECDQAGSSDMEADMAMETLPDGTKRSRRQIKEPVKFVPQDVPPEPKKIPIRNTRTRGRKRSFVPEEEKHEERVPRERRQRQSVLQKKPKAEDLRTECATCKGTGDNENLVRCDECRLCYHFGCLDPPLKKSPKQTGYGWICQECDSSSSKEDENEAERKNISQELNMEQKNPKK
In the case of B1, the binding result is recorded as “binds”.

The values above are taken from paper PMC7048395.
